The source of these data is publication PMC9668932.

Protein sequences, listed by entry. Tags and fused reporters are not part of them. Residues count along the entry.
UniProt P35869, residues 1-437: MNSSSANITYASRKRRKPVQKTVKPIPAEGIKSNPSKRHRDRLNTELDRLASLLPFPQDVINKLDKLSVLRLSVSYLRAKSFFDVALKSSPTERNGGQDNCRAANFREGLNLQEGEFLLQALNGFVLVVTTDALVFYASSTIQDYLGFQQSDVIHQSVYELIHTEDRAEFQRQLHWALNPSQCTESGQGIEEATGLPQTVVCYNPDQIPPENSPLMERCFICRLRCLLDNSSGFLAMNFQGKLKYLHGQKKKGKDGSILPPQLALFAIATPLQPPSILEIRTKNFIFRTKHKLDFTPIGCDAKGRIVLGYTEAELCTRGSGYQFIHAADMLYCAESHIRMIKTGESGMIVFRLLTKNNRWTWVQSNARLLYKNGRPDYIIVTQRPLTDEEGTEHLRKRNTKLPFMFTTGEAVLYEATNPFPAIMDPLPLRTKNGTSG
UniProt P08238: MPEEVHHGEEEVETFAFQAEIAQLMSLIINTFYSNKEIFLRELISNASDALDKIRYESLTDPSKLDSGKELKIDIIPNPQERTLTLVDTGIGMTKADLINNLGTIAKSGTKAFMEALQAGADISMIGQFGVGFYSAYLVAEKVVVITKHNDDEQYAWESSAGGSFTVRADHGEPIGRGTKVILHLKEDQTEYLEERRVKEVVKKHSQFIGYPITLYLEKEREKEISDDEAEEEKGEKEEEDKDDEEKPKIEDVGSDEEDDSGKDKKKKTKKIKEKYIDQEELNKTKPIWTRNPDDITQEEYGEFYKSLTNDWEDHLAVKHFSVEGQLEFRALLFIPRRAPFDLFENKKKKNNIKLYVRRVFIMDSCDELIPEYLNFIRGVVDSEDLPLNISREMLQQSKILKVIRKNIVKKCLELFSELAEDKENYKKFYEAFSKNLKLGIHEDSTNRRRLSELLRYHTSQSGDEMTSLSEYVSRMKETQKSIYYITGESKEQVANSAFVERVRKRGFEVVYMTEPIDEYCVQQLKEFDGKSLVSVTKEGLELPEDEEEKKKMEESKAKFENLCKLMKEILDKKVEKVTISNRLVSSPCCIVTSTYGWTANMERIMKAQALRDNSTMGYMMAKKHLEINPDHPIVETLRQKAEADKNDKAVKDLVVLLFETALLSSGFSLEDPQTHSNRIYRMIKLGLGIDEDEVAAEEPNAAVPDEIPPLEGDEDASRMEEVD

No constants are given. Whether binding was seen depends on the method and setting. For some of these results: In cells and extracts the contact can be indirect. Some results given as binding are weak or reduced against the parent protein; the word gives no strength. Sequences can lack the tags named with a protein.

Assay [1] addresses human aryl hydrocarbon receptor, residues 1-437 (human) (UniProt P35869). Put plainly: co-purification; four proteins co-expressed in Sf9; HisTrap (His6-Hsp90), then Strep-Tactin (Twin Strep-MBP-AHR), TEV, anion exchange that separates complexes with and without p23, SEC; 20 mM Na2MoO4 in the buffers.
For assay [2], the target named is heat shock protein HSP 90-beta, full length, His6-tagged (human) (UniProt P08238). Put plainly: cryo-EM structure; ternary Hsp90-XAP2-AHR complex, co-expressed in Sf9 and co-purified, with indirubin at 5x molar excess; 20 mM Bis-Tris-HCl pH 7.0, 50 mM NaCl, 10 mM KCl, 10 mM MgCl2, 20 mM Na2MoO4, 2 mM BME; global map 2.85 Å, focused map 4.07 Å; both purified.
The target of assay [3] is human aryl hydrocarbon receptor, residues 1-437 (human) (UniProt P35869). Described as above.
Assay [4] concerns the target His10-tag-FLAG-tag-TEV site-Hsp90_(1-724) (human) (UniProt P08238). Put plainly: co-IP; HEK293F co-transfected with Twin Strep-MBP-AHR(1-437), His10-FLAG-Hsp90 and Myc-XAP2; cleared lysate on anti-MBP magnetic beads, 1 h on ice; 20 mM Bis-Tris-HCl pH 7.0, 10 mM KCl, 10 mM MgCl2, 20 mM Na2MoO4, 2 mM BME; Western blot with anti-tag antibodies.
Assay [5] has as its target Twin Strep-tag-MBP-TEV site-AHR_(1-437) (human) (UniProt P35869). Described as above.

B1: prostaglandin E synthase 3, full length, untagged (protein, UniProt Q15185 1-160)
chain: MQPASAKWYDRRDYVFIEFCVEDSKDVNVNFEKSKLTFSCLGGSDNFKHLNEIDLFHCIDPNDSKHKRTDRSILCCLRKGESGQSWPRLTKERAKLNWLSVDFNNWKDWEDDSDEDMSNFDRFSEMMNNMGGDEDVDLPEVDGADDDSQDSDDEKMPDLE
Consider B1, for which the binding result in assay [1] is “binds”.

B2: HBV X-associated protein 2 / aryl-hydrocarbon receptor-interacting protein, full length, untagged (protein, UniProt O00170 1-330)
chain: MADIIARLREDGIQKRVIQEGRGELPDFQDGTKATFHYRTLHSDDEGTVLDDSRARGKPMELIIGKKFKLPVWETIVCTMREGEIAQFLCDIKHVVLYPLVAKSLRNIAVGKDPLEGQRHCCGVAQMREHSSLGHADLDALQQNPQPLIFHMEMLKVESPGTYQQDPWAMTDEEKAKAVPLIHQEGNRLYREGHVKEAAAKYYDAIACLKNLQMKEQPGSPEWIQLDQQITPLLLNYCQCKLVVEEYYEVLDHCSSILNKYDDNVKAYFKRGKAHAAVWNAQEAQADFAKVLELDPALAPVVSRELRALEARIRQKDEEDKARFRGIFSH
For the molecule B2, the binding entry in assay [2] and in assay [3] was “binds” in each case.

B3: Myc-tag-XAP2_(1-330) W279A (protein, UniProt O00170 1-330)
chain: MADIIARLREDGIQKRVIQEGRGELPDFQDGTKATFHYRTLHSDDEGTVLDDSRARGKPMELIIGKKFKLPVWETIVCTMREGEIAQFLCDIKHVVLYPLVAKSLRNIAVGKDPLEGQRHCCGVAQMREHSSLGHADLDALQQNPQPLIFHMEMLKVESPGTYQQDPWAMTDEEKAKAVPLIHQEGNRLYREGHVKEAAAKYYDAIACLKNLQMKEQPGSPEWIQLDQQITPLLLNYCQCKLVVEEYYEVLDHCSSILNKYDDNVKAYFKRGKAHAAVANAQEAQADFAKVLELDPALAPVVSRELRALEARIRQKDEEDKARFRGIFSH
With B3, the binding result in assay [4] is “binds”.

B4: Myc-tag-XAP2_(1-330) Y248A (protein, UniProt O00170 1-330)
chain: MADIIARLREDGIQKRVIQEGRGELPDFQDGTKATFHYRTLHSDDEGTVLDDSRARGKPMELIIGKKFKLPVWETIVCTMREGEIAQFLCDIKHVVLYPLVAKSLRNIAVGKDPLEGQRHCCGVAQMREHSSLGHADLDALQQNPQPLIFHMEMLKVESPGTYQQDPWAMTDEEKAKAVPLIHQEGNRLYREGHVKEAAAKYYDAIACLKNLQMKEQPGSPEWIQLDQQITPLLLNYCQCKLVVEEYAEVLDHCSSILNKYDDNVKAYFKRGKAHAAVWNAQEAQADFAKVLELDPALAPVVSRELRALEARIRQKDEEDKARFRGIFSH
On to B4, for which the binding result in assay [4] is “binds”.

B5: Myc-tag-XAP2_(1-330) (protein, UniProt O00170 1-330)
chain: MADIIARLREDGIQKRVIQEGRGELPDFQDGTKATFHYRTLHSDDEGTVLDDSRARGKPMELIIGKKFKLPVWETIVCTMREGEIAQFLCDIKHVVLYPLVAKSLRNIAVGKDPLEGQRHCCGVAQMREHSSLGHADLDALQQNPQPLIFHMEMLKVESPGTYQQDPWAMTDEEKAKAVPLIHQEGNRLYREGHVKEAAAKYYDAIACLKNLQMKEQPGSPEWIQLDQQITPLLLNYCQCKLVVEEYYEVLDHCSSILNKYDDNVKAYFKRGKAHAAVWNAQEAQADFAKVLELDPALAPVVSRELRALEARIRQKDEEDKARFRGIFSH
With B5, the binding entry in assay [4] and in assay [5] was “binds” each time.

B6: Myc-tag-XAP2_(1-330) S329A (protein, UniProt O00170 1-330)
chain: MADIIARLREDGIQKRVIQEGRGELPDFQDGTKATFHYRTLHSDDEGTVLDDSRARGKPMELIIGKKFKLPVWETIVCTMREGEIAQFLCDIKHVVLYPLVAKSLRNIAVGKDPLEGQRHCCGVAQMREHSSLGHADLDALQQNPQPLIFHMEMLKVESPGTYQQDPWAMTDEEKAKAVPLIHQEGNRLYREGHVKEAAAKYYDAIACLKNLQMKEQPGSPEWIQLDQQITPLLLNYCQCKLVVEEYYEVLDHCSSILNKYDDNVKAYFKRGKAHAAVWNAQEAQADFAKVLELDPALAPVVSRELRALEARIRQKDEEDKARFRGIFAH
Consider B6, for which the binding entry in assay [4] is on record as “binds”.

B7: Myc-tag-XAP2_(1-330) D317A (protein, UniProt O00170 1-330)
chain: MADIIARLREDGIQKRVIQEGRGELPDFQDGTKATFHYRTLHSDDEGTVLDDSRARGKPMELIIGKKFKLPVWETIVCTMREGEIAQFLCDIKHVVLYPLVAKSLRNIAVGKDPLEGQRHCCGVAQMREHSSLGHADLDALQQNPQPLIFHMEMLKVESPGTYQQDPWAMTDEEKAKAVPLIHQEGNRLYREGHVKEAAAKYYDAIACLKNLQMKEQPGSPEWIQLDQQITPLLLNYCQCKLVVEEYYEVLDHCSSILNKYDDNVKAYFKRGKAHAAVWNAQEAQADFAKVLELDPALAPVVSRELRALEARIRQKAEEDKARFRGIFSH
As to B7, the binding result in assay [4] is reported as “binds”.

B8: Myc-tag-XAP2_(1-330) F324A (protein, UniProt O00170 1-330)
chain: MADIIARLREDGIQKRVIQEGRGELPDFQDGTKATFHYRTLHSDDEGTVLDDSRARGKPMELIIGKKFKLPVWETIVCTMREGEIAQFLCDIKHVVLYPLVAKSLRNIAVGKDPLEGQRHCCGVAQMREHSSLGHADLDALQQNPQPLIFHMEMLKVESPGTYQQDPWAMTDEEKAKAVPLIHQEGNRLYREGHVKEAAAKYYDAIACLKNLQMKEQPGSPEWIQLDQQITPLLLNYCQCKLVVEEYYEVLDHCSSILNKYDDNVKAYFKRGKAHAAVWNAQEAQADFAKVLELDPALAPVVSRELRALEARIRQKDEEDKARARGIFSH
Regarding B8, in assay [4], the binding entry is on record as “binds”.

B9: Myc-tag-XAP2_(1-330) D320A (protein, UniProt O00170 1-330)
chain: MADIIARLREDGIQKRVIQEGRGELPDFQDGTKATFHYRTLHSDDEGTVLDDSRARGKPMELIIGKKFKLPVWETIVCTMREGEIAQFLCDIKHVVLYPLVAKSLRNIAVGKDPLEGQRHCCGVAQMREHSSLGHADLDALQQNPQPLIFHMEMLKVESPGTYQQDPWAMTDEEKAKAVPLIHQEGNRLYREGHVKEAAAKYYDAIACLKNLQMKEQPGSPEWIQLDQQITPLLLNYCQCKLVVEEYYEVLDHCSSILNKYDDNVKAYFKRGKAHAAVWNAQEAQADFAKVLELDPALAPVVSRELRALEARIRQKDEEAKARFRGIFSH
For B9, the binding result in assay [4] was “binds”.

B10: Myc-tag-XAP2_(1-330) I327A (protein, UniProt O00170 1-330)
chain: MADIIARLREDGIQKRVIQEGRGELPDFQDGTKATFHYRTLHSDDEGTVLDDSRARGKPMELIIGKKFKLPVWETIVCTMREGEIAQFLCDIKHVVLYPLVAKSLRNIAVGKDPLEGQRHCCGVAQMREHSSLGHADLDALQQNPQPLIFHMEMLKVESPGTYQQDPWAMTDEEKAKAVPLIHQEGNRLYREGHVKEAAAKYYDAIACLKNLQMKEQPGSPEWIQLDQQITPLLLNYCQCKLVVEEYYEVLDHCSSILNKYDDNVKAYFKRGKAHAAVWNAQEAQADFAKVLELDPALAPVVSRELRALEARIRQKDEEDKARFRGAFSH
As to B10, the binding result in assay [4] is “binds”.

B11: Myc-tag-XAP2_(1-330) F328A (protein, UniProt O00170 1-330)
chain: MADIIARLREDGIQKRVIQEGRGELPDFQDGTKATFHYRTLHSDDEGTVLDDSRARGKPMELIIGKKFKLPVWETIVCTMREGEIAQFLCDIKHVVLYPLVAKSLRNIAVGKDPLEGQRHCCGVAQMREHSSLGHADLDALQQNPQPLIFHMEMLKVESPGTYQQDPWAMTDEEKAKAVPLIHQEGNRLYREGHVKEAAAKYYDAIACLKNLQMKEQPGSPEWIQLDQQITPLLLNYCQCKLVVEEYYEVLDHCSSILNKYDDNVKAYFKRGKAHAAVWNAQEAQADFAKVLELDPALAPVVSRELRALEARIRQKDEEDKARFRGIASH
As for B11, the binding entry in assay [4] is listed as “binds”.
